Results of single-concentration screens

The chains behind the UniProt entries cited, without tags or fusion partners. Residues count along the entry.
UniProt P9WPC5, whole entry: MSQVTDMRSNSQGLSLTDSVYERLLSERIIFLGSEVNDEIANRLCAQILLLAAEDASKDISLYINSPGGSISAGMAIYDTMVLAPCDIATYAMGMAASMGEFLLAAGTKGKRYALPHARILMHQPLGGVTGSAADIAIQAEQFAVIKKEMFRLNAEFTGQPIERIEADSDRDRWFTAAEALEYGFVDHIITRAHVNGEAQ
UniProt P9WPC3, whole entry partner: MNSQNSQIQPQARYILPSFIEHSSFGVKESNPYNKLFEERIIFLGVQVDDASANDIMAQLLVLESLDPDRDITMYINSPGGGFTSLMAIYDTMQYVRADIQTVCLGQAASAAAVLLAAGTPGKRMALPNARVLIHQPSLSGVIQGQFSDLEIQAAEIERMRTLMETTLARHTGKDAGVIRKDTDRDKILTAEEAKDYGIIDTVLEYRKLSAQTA
UniProt P9WNZ1, whole entry: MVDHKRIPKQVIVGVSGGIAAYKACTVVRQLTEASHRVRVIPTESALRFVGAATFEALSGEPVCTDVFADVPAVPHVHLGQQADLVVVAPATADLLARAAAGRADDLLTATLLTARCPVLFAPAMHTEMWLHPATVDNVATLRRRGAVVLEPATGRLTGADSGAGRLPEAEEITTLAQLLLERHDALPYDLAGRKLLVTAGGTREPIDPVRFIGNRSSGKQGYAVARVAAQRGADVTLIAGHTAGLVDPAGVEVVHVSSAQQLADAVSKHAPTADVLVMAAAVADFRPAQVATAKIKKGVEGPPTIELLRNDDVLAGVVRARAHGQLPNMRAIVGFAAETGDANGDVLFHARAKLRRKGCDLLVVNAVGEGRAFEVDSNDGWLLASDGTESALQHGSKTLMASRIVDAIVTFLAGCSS
UniProt Q8IDJ8, 1-583: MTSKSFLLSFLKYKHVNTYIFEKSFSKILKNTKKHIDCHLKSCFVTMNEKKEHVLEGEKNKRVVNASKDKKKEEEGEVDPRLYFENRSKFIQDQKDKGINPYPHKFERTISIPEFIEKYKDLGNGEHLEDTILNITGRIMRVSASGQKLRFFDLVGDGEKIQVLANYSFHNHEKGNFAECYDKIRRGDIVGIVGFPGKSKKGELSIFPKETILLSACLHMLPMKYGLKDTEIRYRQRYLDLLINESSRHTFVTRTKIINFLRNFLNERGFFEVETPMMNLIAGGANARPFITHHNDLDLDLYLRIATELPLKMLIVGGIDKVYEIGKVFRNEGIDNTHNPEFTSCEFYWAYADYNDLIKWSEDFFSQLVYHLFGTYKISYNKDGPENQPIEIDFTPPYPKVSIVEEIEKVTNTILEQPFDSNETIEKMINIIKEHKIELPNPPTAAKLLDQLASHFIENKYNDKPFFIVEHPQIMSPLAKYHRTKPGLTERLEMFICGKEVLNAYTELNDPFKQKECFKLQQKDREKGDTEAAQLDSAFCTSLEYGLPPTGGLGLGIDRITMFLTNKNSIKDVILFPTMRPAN
UniProt Q4DA54, 1-478: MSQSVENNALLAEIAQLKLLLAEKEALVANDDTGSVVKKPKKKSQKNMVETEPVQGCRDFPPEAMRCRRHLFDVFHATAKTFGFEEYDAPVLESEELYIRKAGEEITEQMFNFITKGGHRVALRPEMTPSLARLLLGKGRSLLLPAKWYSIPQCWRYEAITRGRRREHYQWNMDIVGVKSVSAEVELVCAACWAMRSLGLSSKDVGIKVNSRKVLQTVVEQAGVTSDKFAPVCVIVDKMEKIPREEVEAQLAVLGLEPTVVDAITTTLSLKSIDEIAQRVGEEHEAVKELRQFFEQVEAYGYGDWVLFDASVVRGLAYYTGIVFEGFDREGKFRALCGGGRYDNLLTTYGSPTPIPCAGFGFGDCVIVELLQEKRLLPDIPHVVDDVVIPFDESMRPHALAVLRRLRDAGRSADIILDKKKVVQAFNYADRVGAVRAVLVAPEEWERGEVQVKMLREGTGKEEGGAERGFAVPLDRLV
UniProt I6X8D2, whole entry: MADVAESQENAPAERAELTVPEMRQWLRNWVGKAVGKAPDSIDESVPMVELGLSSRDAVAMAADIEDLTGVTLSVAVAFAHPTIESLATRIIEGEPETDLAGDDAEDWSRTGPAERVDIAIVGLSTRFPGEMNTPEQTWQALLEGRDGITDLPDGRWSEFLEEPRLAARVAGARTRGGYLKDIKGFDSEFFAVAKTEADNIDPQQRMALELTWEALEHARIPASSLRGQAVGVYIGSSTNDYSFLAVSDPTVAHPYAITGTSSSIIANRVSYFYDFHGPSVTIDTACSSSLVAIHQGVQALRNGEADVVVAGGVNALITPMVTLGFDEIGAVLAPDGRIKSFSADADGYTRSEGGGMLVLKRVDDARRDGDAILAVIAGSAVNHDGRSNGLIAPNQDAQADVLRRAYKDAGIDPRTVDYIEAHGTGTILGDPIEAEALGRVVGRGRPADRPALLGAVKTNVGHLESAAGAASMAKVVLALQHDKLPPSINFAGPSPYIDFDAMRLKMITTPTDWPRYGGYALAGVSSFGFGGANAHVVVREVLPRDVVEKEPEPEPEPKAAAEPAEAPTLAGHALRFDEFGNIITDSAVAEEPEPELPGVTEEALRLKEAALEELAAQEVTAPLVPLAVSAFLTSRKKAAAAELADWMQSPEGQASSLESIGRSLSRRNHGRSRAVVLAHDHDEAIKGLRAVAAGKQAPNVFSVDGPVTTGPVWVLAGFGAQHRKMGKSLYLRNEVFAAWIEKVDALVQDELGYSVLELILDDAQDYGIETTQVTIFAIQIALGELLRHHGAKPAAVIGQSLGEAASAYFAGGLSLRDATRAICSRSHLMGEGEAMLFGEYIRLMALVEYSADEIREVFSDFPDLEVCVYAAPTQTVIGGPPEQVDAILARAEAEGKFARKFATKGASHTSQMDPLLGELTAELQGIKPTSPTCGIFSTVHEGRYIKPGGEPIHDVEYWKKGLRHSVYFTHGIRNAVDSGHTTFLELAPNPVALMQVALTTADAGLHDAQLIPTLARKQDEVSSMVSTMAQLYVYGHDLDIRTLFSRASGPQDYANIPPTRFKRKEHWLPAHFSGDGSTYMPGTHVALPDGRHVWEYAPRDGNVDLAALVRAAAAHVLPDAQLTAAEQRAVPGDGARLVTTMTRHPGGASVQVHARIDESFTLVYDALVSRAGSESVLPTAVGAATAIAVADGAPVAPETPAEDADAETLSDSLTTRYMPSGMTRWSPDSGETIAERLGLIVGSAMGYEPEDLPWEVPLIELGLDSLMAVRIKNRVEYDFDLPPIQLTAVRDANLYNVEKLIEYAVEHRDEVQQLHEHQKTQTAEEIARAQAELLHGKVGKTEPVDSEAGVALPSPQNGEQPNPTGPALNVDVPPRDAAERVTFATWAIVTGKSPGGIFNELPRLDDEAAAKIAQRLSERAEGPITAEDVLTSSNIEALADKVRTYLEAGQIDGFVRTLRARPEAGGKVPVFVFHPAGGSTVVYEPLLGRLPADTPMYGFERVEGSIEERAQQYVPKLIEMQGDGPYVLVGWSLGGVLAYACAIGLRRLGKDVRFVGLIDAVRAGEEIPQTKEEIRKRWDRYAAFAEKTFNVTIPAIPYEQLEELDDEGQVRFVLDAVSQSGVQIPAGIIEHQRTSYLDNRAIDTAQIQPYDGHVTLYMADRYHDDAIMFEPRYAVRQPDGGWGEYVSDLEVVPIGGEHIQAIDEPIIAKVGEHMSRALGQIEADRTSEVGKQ

Data taken from ChEMBL document CHEMBL3988442, “University of Dundee, Small-Polar-MMV Screening Library” (2021).

A: 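Protease assay of ClpP1P2, read by the AMC dye that it sets free. Target: ClpP1P2, Mycobacterium tuberculosis (UniProt P9WPC5 and UniProt P9WPC3). Compounds at 50 µM. Direction is inferred from only a few compounds that gave an IC50; most scored high, so higher reads as stronger inhibition. Most other retested compounds had strongly negative values. Of about 69,000 compounds tested this way, about 10 (0.015%) reached 50% or more in at least one test.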
B: 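Coenzyme A biosynthesis protein CoaBC, Mycobacterium tuberculosis (UniProt P9WNZ1). Enzyme assay of CoaBC with a phosphate dye (Biomol Green) read at 650 nm. Concentration: 30 µM. Higher reads as stronger inhibition, judged from the few compounds that gave an IC50. Most strong results did not repeat in a second test. About 67,000 compounds were tested under these conditions; 0.06% (about 40) showed 50% or more at least once.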
C: 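Lysine-tRNA ligase, Plasmodium falciparum 3D7 (UniProt Q8IDJ8). Enzyme assay of the cytosolic lysyl-tRNA synthetase in 384-well plates, read by luminescence. Compounds at 30 µM. Direction is inferred from only a few compounds that gave an IC50; most scored high, so higher reads as stronger inhibition. About 69,000 compounds were tested under these conditions; 0.071% (about 49) showed 50% or more at least once.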
D: 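Histidine-tRNA ligase, Trypanosoma cruzi CL Brener (UniProt Q4DA54). Enzyme assay of histidyl-tRNA synthetase; the read-out is not stated. Concentration: 30 µM. The record gives no direction; compounds that gave an IC50 in retests scored well above the rest, so higher reads as stronger inhibition. About 69,000 compounds were tested under these conditions; 0.045% (about 31) showed 50% or more at least once.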
E: 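Enzyme assay of the thioesterase domain of polyketide synthase 13; the read-out is not stated. Target: Polyketide synthase Pks13, Mycobacterium tuberculosis (UniProt I6X8D2). Concentration: 30 µM. The record gives no direction; the compounds picked for IC50 retests had high values, so higher reads as stronger inhibition. About 67,000 compounds were tested under these conditions; 0.46% (about 300) showed 50% or more at least once.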

Values are the deposited “Percent Effect”, in %. The record does not define 0% and 100%; most values in the screen are far below 50% and negative numbers occur (in some assays of this library far below -100). The compounds are a random part of those screened.

* CCOC(=O)N1CCN(C(=O)Cn2ccc3ncccc3c2=O)CC1 | A: -5.647%; B: 4.294%; C: -1.317%; D: 4.938%; E: 10.83%
* O=C1CC(NCc2ccncc2)CN1CCc1cccc(Cl)c1 (centres unmarked) | A: -8.619%; B: 5.654%; C: 3.408%; D: 10.05%; E: -6.125%
* COc1ccc(-n2ccc(C(=O)NCCN3CCC(C)CC3)n2)cc1 | A: -0.4893%; B: 5.806%; C: 2.364%; D: 8.046%; E: -9.461%
* NC(=O)COc1ccc(C(=O)NCCc2ccco2)cc1 | A: -6.903%; B: 8.013%; C: 3.201%; D: 3.941%
* Cn1c(C2CC2)nc2c1CCN(CC(=O)Nc1nncs1)C2 | A: 1.664%; B: 1.446%; C: 7.176%; D: 3.817%; E: -2.698%
* Cc1noc(C)c1CN(C)C(=O)C1CCCCN1S(C)(=O)=O (centres unmarked) | A: 9.73%; B: -2.233%; C: -0.6951%; D: -5.882%; E: -25.05%
* O=C1c2cnc(N3CCCC3)nc2CN1CCc1ccc(Cl)cc1 | A: -13.71%; B: 6.378%; C: 6.336%; D: 8.482%; E: -18.75%
* O=C(NCc1ccco1)c1nn(C2CCS(=O)(=O)C2)c2c1CCCC2 (centres unmarked) | A: -6.191%; B: -2.024%; C: 7.394%; D: 1.087%; E: -35.07%
* O=C([C@H]1C[C@H]2OCC[C@H]2N(C(=O)c2cnccn2)C1)N1CCCCO1 | A: -3.456%; B: 6.189%; C: 7.753%; D: 3.922%; E: -39.38%
* CN(C)c1ncc(CNC(=O)Nc2ccccc2C(F)(F)F)n1C | A: -5.3%; B: -0.2012%; C: -1.479%; D: 7.303%; E: -8.465%
* O=C(c1ccco1)N1Cc2cnn(CC3CC3)c2C(COCC2CC2)C1 (centres unmarked) | A: 1.246%; B: 0.9756%; C: 0.04034%; D: 0%; E: -38.28%
* COCCN1CCC2(CC1)CC(NC(=O)CC1CC1)c1ccccc1O2 (centres unmarked) | A: -11.89%; B: 2.703%; C: 3.518%; D: 6.796%; E: -14.97%
* O=C(Nc1cccnc1)Nc1cccc(CN2CCC(O)CC2)c1 | A: 12.32%; B: 0.978%; C: 0.9806%; D: 3.093%; E: -2.417%
* CC(C)COCC(NC(=O)c1cc[nH]n1)c1ccco1 (centres unmarked) | A: 13.51%; B: 5.338%; C: -0.7465%; D: 2.256%; E: -2.201%
* Cc1occc1C(=O)N1CCC2(CCN(Cc3nccs3)CC2)C1 | A: -0.6373%; B: 4.078%; C: 8.263%; D: 3.96%; E: -42.21%
* COc1ccccc1C1Cn2c(C)cnc2CN1Cc1c[nH]nc1C (centres unmarked) | A: 0.1614%; B: -4.895%; C: 1.114%; D: 7.143%; E: -22.08%
* COC(C)(CNS(=O)(=O)c1cnn(C)c1)c1ccccc1F (centres unmarked) | A: -8.174%; B: -1.788%; C: 0.8759%; D: 1.212%; E: -31.56%
* CCNc1ncc2c(n1)CN(c1cccc(OC)c1)C2=O | A: 5.223%; B: 1.155%; C: 3.764%; D: -1.739%; E: -39.35%
* O=C(c1ccc(-n2cccn2)nc1)N1CCCC(c2cnccn2)C1 (centres unmarked) | A: 10.09%; B: 10.02%; C: 2.548%; D: -6.391%
* CCN(CC)C(=O)CC[C@@H]1CNC(=O)[C@@H]2C[C@H](NC(=O)C3CC3)CN12 | A: -14.25%; B: 8.352%; C: 2.825%; D: 10.89%; E: -3.349%